Reference: PubChem BioAssay AID1439 (NMMLSC, 2008)
The whole screen tested about 220,000 compounds, of which about 770 (0.35%) were called active. Inconclusive means that the source gave no clear call. Such entries were picked first, then a sample of the others. Rule as the data show it: active = binding response below about 49% or above about 150%; inconclusive = no clear call, values can overlap the other calls; inactive = in between.

Amino acid sequences for entries named in this document (tags omitted).
UniProt P09471, whole entry, looked up: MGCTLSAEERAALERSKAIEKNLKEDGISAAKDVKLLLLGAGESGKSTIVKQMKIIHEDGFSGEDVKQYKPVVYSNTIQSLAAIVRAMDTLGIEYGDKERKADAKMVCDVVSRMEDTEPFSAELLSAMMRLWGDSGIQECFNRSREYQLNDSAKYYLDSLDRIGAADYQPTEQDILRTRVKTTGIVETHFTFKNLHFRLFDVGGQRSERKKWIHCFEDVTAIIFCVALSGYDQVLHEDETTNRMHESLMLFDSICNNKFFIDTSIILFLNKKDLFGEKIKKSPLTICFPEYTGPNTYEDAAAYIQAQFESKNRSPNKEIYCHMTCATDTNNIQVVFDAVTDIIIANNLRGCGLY

target: Guanine nucleotide-binding protein G(o) subunit alpha (Homo sapiens) (UniProt P09471); assay: RGS7-Galphao binding modulators, primary screen, biochemical, multiplexed bead flow cytometry (AID 1439); details: at 10 µM, actives lie on both sides;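 also: fluorescent Galphao held in activated GDP-AlF4 state binding bead-coupled RGS7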

Structure (SMILES) | binding response (% of control)
OC(COc1cccc2ccccc12)CN1CCN(c2ccccc2Cl)CC1 (centres undefined) | inconclusive: 99.6%
O=C(/C=C/c1cccs1)N1CCCCC1 | inconclusive: 109%
O=C(CSc1nnc(CNC(=O)c2ccco2)o1)Nc1ccccc1 | inactive: 120%
COc1cccc(CNC(=O)CCC2CCCN(C(=O)c3ccc(OC)o3)C2)c1 (centres undefined) | inactive: 96%
COCCCNCC#CCOc1ccc(OC)cc1 | inconclusive: 101%
Cc1ccc(-c2csc3ncnc(Nc4ccc(C(=O)O)cc4)c23)cc1 | inconclusive: 98.6%
O=S(=O)(CCN1CCSCC1)c1ccccc1 | inconclusive: 87.4%
COc1ccccc1NC(=O)CC(c1ccc(OC(C)C)cc1)c1ccccc1OC (centres undefined) | inactive: 107%
COc1ccc(S(=O)(=O)N(C)C)cc1NC(=O)CSc1nc(N)cc(N)n1 | inconclusive: 74.5%
COc1ccc(-c2cc(-c3ccccc3)nc3ncnn23)cc1 | inconclusive: 95.1%
CCOC(=O)C1CCCN(C(=O)COC(=O)C2=COCCO2)C1 (centres undefined) | inactive: 119%
C/C(=N\NC(=O)c1nn(C)cc1Cl)c1ccncc1 | inactive: 98.2%
Fc1ccc(-c2nc(-c3cnccn3)no2)c(Cl)c1 | inconclusive: 141%
CSc1ccccc1C(=O)NCc1cccnc1 | inconclusive: 127%
O=C(c1ccccc1)c1ccc2c(c1)OCCCO2 | inconclusive: 76.1%
COCCCNc1nc2nonc2nc1NCCSC | inconclusive: 76.4%
CN(C)c1cc(Nc2cccc(O)c2)c([N+](=O)[O-])c2nonc12 | inconclusive: 107%
O=C(N/N=C/c1ccccc1[N+](=O)[O-])c1cnccn1 | inconclusive: 462%
O=C(Cc1nnc(NC(=O)Nc2ccc(F)cc2)s1)NCc1ccccc1 | inconclusive: 55.3%
COc1ccccc1-c1noc(-c2ccccc2C(=O)NCc2ccco2)n1 | inconclusive: 103%

Structure (SMILES) | binding response (% of control)
CCn1cc(SCC(=O)NCC2CCCO2)c2ccccc21 (centres undefined) | inconclusive: 126%
CC(C)(C)C(=O)O/N=C(\N)c1ccc(Br)cc1 | inconclusive: 103%
COc1cc(CNC(C)C)c(Br)cc1OC1CCCC1 | inconclusive: 98.7%
Cc1ccc(OS(=O)(=O)c2cn(C)c(=O)n(C)c2=O)cc1C | inconclusive: 118%
OC1(c2ccc(Cl)c(Cl)c2)C[n+]2ccccc2N1Cc1ccccc1 (centres undefined) | inconclusive: 124%
O=C(NCc1ccco1)C(=O)NCC1OCCN1S(=O)(=O)c1cc(F)ccc1F (centres undefined) | inconclusive: 112%
Cc1ccc(OCc2nc(C#N)c(N3CCCCC3)o2)cc1 | inconclusive: 339%
Cc1cccc(C)c1NC(=O)CNC(=O)c1c(C)nn(C)c1Cl | inconclusive: 97.4%
O=C1CSC(=S)N1Cc1cccnc1 | inactive: 99.8%
CN(CC1CCOCC1)C(=O)CC1C(=O)NCCN1CC1CCCCC1 (centres undefined) | inactive: 100%
Cc1ccc(-c2nc3ccccc3c(=O)n2-c2c(C)n(C)n(-c3ccccc3)c2=O)cc1 | inconclusive: 111%
CN1CCC/C1=C1/C(=O)N(c2ccccc2)N=C1NC(=O)Nc1cccc(Cl)c1 | inconclusive: 89.8%
COc1ccc(NC2=C(C(C)=O)C(c3ccccc3)C(C(C)=O)C(C)(O)C2)cc1 (centres undefined) | inconclusive: 61.8%
O=C(Nc1ccccn1)c1cc2cc([N+](=O)[O-])ccc2s1 | inactive: 101%
Cn1c(=O)c2cc(S(=O)(=O)NC(Cc3ccccc3)C(=O)NCC3CCCO3)ccc2n(C)c1=O (centres undefined) | inconclusive: 108%
CCOc1cnc(-c2c(-c3c(F)cccc3Cl)noc2C)o1 | inconclusive: 87%
CC1(C)OC(c2ccccc2)=C/C(=C\C=N\NC(=O)c2ccncc2)O1 | inconclusive: 88.4%
Cc1ccc(S(=O)(=O)NNC(=O)Cc2cccn2C)cc1 | inconclusive: 89.6%
NS(=O)(=O)c1cccnc1Nc1c(Cl)cccc1Cl | active: 179% [activator]
CCOC(=O)c1c(CC(C)C)csc1NC(=O)COC(=O)c1cc(OC)c(OC)cc1[N+](=O)[O-] | inactive: 101%

Part of the list above, set out differently.
Structure (SMILES),binding response (% of control)
Cn1c(=O)c2cc(S(=O)(=O)NC(Cc3ccccc3)C(=O)NCC3CCCO3)ccc2n(C)c1=O (centres undefined),inconclusive: 108%
CCOc1cnc(-c2c(-c3c(F)cccc3Cl)noc2C)o1,inconclusive: 87%
CC1(C)OC(c2ccccc2)=C/C(=C\C=N\NC(=O)c2ccncc2)O1,inconclusive: 88.4%

(more compounds)

Structure (SMILES) | binding response (% of control)
CCCc1nnc(NC(=O)Nc2ccc(OC)cc2)s1 | inconclusive: 88.9%
COCC(=O)Nc1ccc(Br)c(C)c1 | inconclusive: 118%
NC(=O)CC(NC(=O)Cc1cccc2ccccc12)c1ccc(N2CCc3ccccc3C2)c([N+](=O)[O-])c1 (centres undefined) | inconclusive: 98.5%
Cc1cccc(C)c1NC(=O)Nc1ccccc1-n1ccnc1 | inactive: 99.6%
CCCCCC(=O)N1CC2(CC(c3cccc(NC(=O)CC)c3)=NO2)C[C@H]1C(N)=O (some centres undefined) | inconclusive: 105%
COc1ccc(C2CC(=O)c3cnc(N4CCc5ccccc54)nc3C2)cc1OC (centres undefined) | inconclusive: 85.3%
Cc1ccc(Nc2nc(CSc3n[nH]c(N)n3)cs2)cc1 | inconclusive: -88.4%
COc1cccc(NC(=O)Cn2c(=O)n(CCC(=O)NC3CCN(Cc4ccccc4)CC3)c(=O)c3ccccc32)c1 | inconclusive: 108%
COC(=O)c1ccccc1NC(=O)CSc1nncn1C | inconclusive: 111%
Cc1ccc(NC(=O)c2c(Cl)nc3ccccn23)cc1 | inconclusive: 123%
O=C(COC(=O)c1ccncc1)NCc1ccccc1 | inactive: 98.6%
CCCCC1=CC2=C(c3ccco3)C(=O)C(C)(OC(=O)c3ccc(OC)cc3)C(=O)C2=CN1C1CC1 (centres undefined) | inconclusive: 107%
FC(F)(F)c1nc(-c2ccccc2)ncc1-c1nnnn1-c1ccccc1 | inconclusive: 132%
COC(=O)c1ccc(S(=O)(=O)N2CCN(C)CC2)n1C | inconclusive: 123%
CC1(OC(=O)CCc2ccccc2)C(=O)C=C2C=C(c3ccc(C#N)cc3)N(C3CC3)C=C2C1=O (centres undefined) | inconclusive: 90.5%
COc1ccc(CC(=O)N/N=C/c2c(C)n(C)c3ccccc23)cc1OC | inconclusive: 134%
COc1ccc(C(CNC(=O)Cn2[nH]c(=O)c3ccccc3c2=O)N2CCCC2)cc1 (centres undefined) | inactive: 91.3%
CSc1ccc(Cn2nnc(C(=O)NCCc3ccc(Cl)cc3)c2N)cc1 | inconclusive: 96.5%
CCCN(CC(=O)Nc1cccc(S(N)(=O)=O)c1)CC(=O)Nc1ccc(F)c(F)c1F | inconclusive: -140%
